Reference: publication PMC7862700
This is a selection; strong and weak results do not stand in their true shares. For some assays here: At the low end of the ranking the order means little. The list shows a part of the results. For some assays here: The source does not settle which construct or isoform was used.

Legend:
Test in all cases: DAPPL (digital affinity profiling via proximity ligation, sequencing)
Settings in all cases: 10 mM Tris-HCl pH 7.5, 50 mM NaCl, 1 mM DTT, 4% glycerol, room temperature, 30 min; GST-TFs on glutathione beads, 16-mer random dsDNA library, 0.1% …; high values mean tight binding; double strand, one strand shown; scale: fold enrichment (6-mer frequency, TF over GST control)
[1] = target: T1, ETS1 (UniProt P14921)
T1 sequence: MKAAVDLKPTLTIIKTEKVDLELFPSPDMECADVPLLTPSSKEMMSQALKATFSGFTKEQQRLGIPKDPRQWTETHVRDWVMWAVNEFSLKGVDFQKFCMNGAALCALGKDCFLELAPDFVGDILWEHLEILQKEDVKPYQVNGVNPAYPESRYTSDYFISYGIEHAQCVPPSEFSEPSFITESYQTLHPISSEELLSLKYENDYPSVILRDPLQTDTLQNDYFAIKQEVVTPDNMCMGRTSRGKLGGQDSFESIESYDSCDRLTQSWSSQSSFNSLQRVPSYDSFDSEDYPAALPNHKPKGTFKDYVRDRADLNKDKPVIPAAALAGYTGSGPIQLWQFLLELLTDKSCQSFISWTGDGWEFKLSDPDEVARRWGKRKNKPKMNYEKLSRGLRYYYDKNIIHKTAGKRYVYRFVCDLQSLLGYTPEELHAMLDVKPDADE

[2] = target: T2, SPDEF (UniProt O95238)
T2 sequence: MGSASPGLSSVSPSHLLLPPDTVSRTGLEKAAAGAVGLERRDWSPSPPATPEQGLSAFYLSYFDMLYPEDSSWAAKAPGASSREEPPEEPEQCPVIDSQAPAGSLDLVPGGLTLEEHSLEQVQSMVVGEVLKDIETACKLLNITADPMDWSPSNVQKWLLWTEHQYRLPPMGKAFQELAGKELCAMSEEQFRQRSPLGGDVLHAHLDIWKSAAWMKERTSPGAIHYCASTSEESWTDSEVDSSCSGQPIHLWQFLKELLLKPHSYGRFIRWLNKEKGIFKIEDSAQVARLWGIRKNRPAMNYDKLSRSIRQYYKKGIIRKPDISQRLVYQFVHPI

[3] = target: T3, GABPA (UniProt Q06546)
T3 sequence: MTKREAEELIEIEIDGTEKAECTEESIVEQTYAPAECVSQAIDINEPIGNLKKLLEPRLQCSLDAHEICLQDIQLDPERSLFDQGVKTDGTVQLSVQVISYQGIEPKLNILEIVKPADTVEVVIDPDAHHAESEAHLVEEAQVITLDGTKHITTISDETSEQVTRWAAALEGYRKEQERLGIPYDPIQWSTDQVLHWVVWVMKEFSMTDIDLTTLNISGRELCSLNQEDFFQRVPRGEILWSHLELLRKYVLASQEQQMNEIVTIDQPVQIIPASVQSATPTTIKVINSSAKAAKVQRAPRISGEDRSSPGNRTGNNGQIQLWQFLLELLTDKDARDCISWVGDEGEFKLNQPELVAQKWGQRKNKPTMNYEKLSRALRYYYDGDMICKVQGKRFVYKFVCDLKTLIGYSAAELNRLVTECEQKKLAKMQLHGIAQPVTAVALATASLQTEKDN

GGGCTG
binding signal [1]: 0.929
binding signal [2]: 0.906

GAGACC
binding signal [3]: 0.201
binding signal [1]: 0.22
binding signal [2]: 0.189

GGTGGC
binding signal [3]: 0.778
binding signal [1]: 0.806
binding signal [2]: 0.589

GCCGAG
binding signal [3]: 0.683
binding signal [1]: 0.659
binding signal [2]: 0.549
